Reference: the supplement of paper PMC7877785
± gives the uncertainty stated by the source. Many of these values have a large error.

Test: self-splicing fitness, log relative to wild type (ln ratio); higher = more splicing; Tetrahymena group I intron in knt gene, E. coli kanamycin selection, DiMSum; sequences stand for … in CUCUCU…GGAGGGAAAAGUUAUCAGGCAUGCACCUGGUAGCUAGUCUUUAAACCAAUAGAUUGCAUCGGUUUAAAAGGCAAGACCGUCAAAUUGCGGGAAAGGGGUCAACAGCCGUUCAGUACCAAGUCUCAGGGGAAACUUUGAGAUGGCCUUGCAAAGGGUAUGGUAAUAAGCUGACGGACAUGGUCCUAACCACGCAGCCAAGUCCUAAGUCAACAGAUCUUCUGUUGAUAUGGAUGCAGUUCACAGACUAAAUGUCGGUCGGGGAAGAUGUAUUCUUCUCAUAAGAUAUAGUCGGACCUCUCCUUAAUGGGAGCUAGCGGAUGAAGUGAUGCAACACUGGAGCCGCUGGGAACUAAUUUGUAUGCGAAAGUAUAUUGAUUAGUUUUGGAGUACUCGUGGUCG
Procedure, shortened: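 Six replicate transformations of E. coli BL21(DE3) with a pET-22b(+) library were grown overnight at 37°C or 30°C. The library randomised all eight P1ex-region intron nucleotides, the intron lying in the knt kanamycin-resistance gene, and plates were LB agar with or without 25 μg/mL kanamycin plus 100 μg/mL carbenicillin, 50 μM IPTG and 0.2% rhamnose. Pooled colonies were amplicon-sequenced on an Illumina HiSeq 2500, and fitness is the DiMSum error-weighted combination of wild-type-normalised replicate fold changes, kanamycin versus none.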

Sequence | self-splicing fitness (ln) (30 °C) | self-splicing fitness (ln) (37 °C)
UGGGAGCAAUAUUACGGACC | -2.97 ± 0.53 | -1.79 ± 0.53
GCAAAGCAAUAUUACGGAUA | -2.49 ± 0.13 | -1.6 ± 0.1
CGGGAGCAAUAUUACGUAUG | – | -2.14 ± 0.63
GCAGAGCAAUAUUACGCGAC | -4.61 ± 0.73 | –
UUUUAGCAAUAUUACGAGGC | -1.43 ± 0.56 | –
UGUUAGCAAUAUUACGCACA | -1.21 ± 0.12 | -0.549 ± 0.11
UCUGAGCAAUAUUACGAGGU | – | -3.76 ± 0.59
CCGUAGCAAUAUUACGAGGC | -3.26 ± 0.74 | -2.78 ± 0.62
AUAUAGCAAUAUUACGAUCA | -1.4 ± 0.16 | -0.365 ± 0.22
GUCUAGCAAUAUUACGCGCU | -1.29 ± 0.19 | -0.353 ± 0.15
GUGGAGCAAUAUUACGACGA | -2.65 ± 0.7 | –
GUUUAGCAAUAUUACGGGGC | – | -3.91 ± 1
CCUUAGCAAUAUUACGCUCC | -3.64 ± 0.63 | -1.44 ± 0.5
UAGGAGCAAUAUUACGGGAA | -4.02 ± 0.6 | -3.68 ± 0.73
AUGCAGCAAUAUUACGGAGC | -2.6 ± 0.15 | -2.99 ± 0.18
GCAGAGCAAUAUUACGCUCA | -1.66 ± 0.15 | -0.832 ± 0.15
AGAGAGCAAUAUUACGGAGA | -4.29 ± 1.1 | –
AGAGAGCAAUAUUACGGGAG | – | -2.9 ± 1.1
CAGGAGCAAUAUUACGAUGA | – | -3.73 ± 1

Sequence | self-splicing fitness (ln) (30 °C) | self-splicing fitness (ln) (37 °C)
CACGAGCAAUAUUACGCACA | -2.74 ± 0.19 | -1.17 ± 0.15
AUGUAGCAAUAUUACGUCCC | -1.73 ± 0.17 | -1.02 ± 0.27
GGUGAGCAAUAUUACGAAAG | -2.56 ± 0.64 | -2.95 ± 0.78
GCGUAGCAAUAUUACGUCUC | -3.35 ± 0.73 | –
AUGGAGCAAUAUUACGUUAC | – | -3.04 ± 0.61
CGAGAGCAAUAUUACGUCCA | -4.13 ± 1 | –
CGGGAGCAAUAUUACGGCCC | – | -0.693 ± 1.4
UUUUAGCAAUAUUACGUGGC | – | -3.17 ± 1
GAUUAGCAAUAUUACGCUCC | -2.16 ± 0.54 | –
UCGAAGCAAUAUUACGCCUA | -3.16 ± 1 | –
CUCGAGCAAUAUUACGAGAA | -2.11 ± 0.67 | -2.92 ± 1
GUGGAGCAAUAUUACGGGAC | – | -2.66 ± 0.76
UUCGAGCAAUAUUACGAUCC | – | -1.12 ± 0.52
AGUGAGCAAUAUUACGGCCA | -3.08 ± 0.79 | -1.26 ± 0.75
UGAGAGCAAUAUUACGAGAG | -4.33 ± 0.73 | –
CGCGAGCAAUAUUACGCCUU | – | -4.64 ± 0.59
GAAUAGCAAUAUUACGUUCC | – | -3.35 ± 0.73
GCUCAGCAAUAUUACGUAUA | -1.73 ± 0.096 | -0.338 ± 0.085
CCGAAGCAAUAUUACGGAUC | -4.4 ± 0.73 | -3.33 ± 0.73

Sequence | self-splicing fitness (ln) (30 °C) | self-splicing fitness (ln) (37 °C)
GUAGAGCAAUAUUACGGCAA | -2.01 ± 0.13 | -0.535 ± 0.21
GUAGAGCAAUAUUACGCCAG | -2.44 ± 1.1 | –
CCUUAGCAAUAUUACGCACU | -2.46 ± 0.41 | -1.29 ± 0.22
AAUAAGCAAUAUUACGCUCG | -0.686 ± 0.14 | 0.0576 ± 0.19
UCGGAGCAAUAUUACGAUUU | -2.74 ± 0.56 | -0.595 ± 1.4
AGAGAGCAAUAUUACGUGUC | -4.79 ± 0.51 | –
GUCCAGCAAUAUUACGCCAC | – | -3.26 ± 0.74
GUCAAGCAAUAUUACGCCCC | – | 1.35 ± 1.1
CCGGAGCAAUAUUACGUCUA | -3.56 ± 0.53 | –
UCGAAGCAAUAUUACGUCCC | 0.518 ± 1.1 | -1.79 ± 1.2
CUAAAGCAAUAUUACGCUCU | – | -3.43 ± 1
UAGAAGCAAUAUUACGACCC | -1.32 ± 1.4 | -1.53 ± 0.6
GAUGAGCAAUAUUACGCAUU | -3.87 ± 1 | –
GUUAAGCAAUAUUACGAUGG | -5.48 ± 0.71 | –
AGAAAGCAAUAUUACGGACA | -0.632 ± 0.2 | -0.869 ± 0.29
UCUAAGCAAUAUUACGAACC | -1.52 ± 0.71 | 0.468 ± 0.86
CAUAAGCAAUAUUACGCCCC | -2.13 ± 0.56 | -1.62 ± 0.67
GAUUAGCAAUAUUACGAAAA | -0.952 ± 0.69 | -1.65 ± 0.67
CAUGAGCAAUAUUACGCACC | -1.64 ± 0.6 | -0.12 ± 0.74

Full records from above:
CUAAAGCAAUAUUACGCUCU as listed: self-splicing fitness (ln) (37 °C) = -3.43 ± 1
UCGGAGCAAUAUUACGAUUU as listed: self-splicing fitness (ln) (30 °C) = -2.74 ± 0.56; self-splicing fitness (ln) (37 °C) = -0.595 ± 1.4
